Patent US20220268780A1, “METHODS OF PREDICTING ENDOMETRIAL RECEPTIVITY” (HUDSON INSTITUTE OF MEDICAL RESEARCH, priority 2019, published 2022)

B1: Disintegrin and metalloproteinase domain-containing protein 10 (protein, UniProt O14672 214-748, looked up)
Disintegrin and …: TTSAEKNTCQLYIQTDHLFFKYYGTREAVIAQISSHVKAIDTIYQTTDFSGIRNISFMVKRIRINTTADEKDPTNPFRFPNIGVEKFLELNSEQNHDDYCLAYVFTDRDFDDGVLGLAWVGAPSGSSGGICEKSKLYSDGKKKSLNTGIITVQNYGSHVPPKVSHITFAHEVGHNFGSPHDSGTECTPGESKNLGQKENGNYIMYARATSGDKLNNNKFSLCSIRNISQVLEKKRNNCFVESGQPICGNGMVEQGEECDCGYSDQCKDECCFDANQPEGRKCKLKPGKQCSPSQGPCCTAQCAFKSKSEKCRDDSDCAREGICNGFTALCPASDPKPNFTDCNRHTQVCINGQCAGSICEKYGLEECTCASSDGKDDKELCHVCCMKKMDPSTCASTGSVQWSRHFSGRTITLQPGSPCNDFRGYCDVFMRCRLVDADGPLARLKKAIFSPELYENIAEWIVAHWWAVLLMGIALIMLMAGFIKICSVHTPSSNPKLPPPKPLPGTLKRRRPPQPIQQPQRQRPRESYQMGHMRR
B2: Calpain small subunit 1 (protein, UniProt P04632 1-268, looked up)
Calpain small subunit 1: MFLVNSFLKGGGGGGGGGGGLGGGLGNVLGGLISGAGGGGGGGGGGGGGGGGGGGGTAMRILGGVISAISEAAAQYNPEPPPPRTHYSNIEANESEEVRQFRRLFAQLAGDDMEVSATELMNILNKVVTRHPDLKTDGFGIDTCRSMVAVMDSDTTGKLGFEEFKYLWNNIKRWQAIYKQFDTDRSGTICSSELPGAFEAAGFHLNEHLYNMIIRRYSDESGNMDFDNFISCLVRLDAMFRAFKSLDKDGTGQIQVNIQEWLQLTMYS
B3: Moesin (protein, UniProt P26038 2-577, looked up)
Moesin: PKTISVRVTTMDAELEFAIQPNTTGKQLFDQVVKTIGLREVWFFGLQYQDTKGFSTWLKLNKKVTAQDVRKESPLLFKFRAKFYPEDVSEELIQDITQRLFFLQVKEGILNDDIYCPPETAVLLASYAVQSKYGDFNKEVHKSGYLAGDKLLPQRVLEQHKLNKDQWEERIQVWHEEHRGMLREDAVLEYLKIAQDLEMYGVNYFSIKNKKGSELWLGVDALGLNIYEQNDRLTPKIGFPWSEIRNISFNDKKFVIKPIDKKAPDFVFYAPRLRINKRILALCMGNHELYMRRRKPDTIEVQQMKAQAREEKHQKQMERAMLENEKKKREMAEKEKEKIEREKEELMERLKQIEEQTKKAQQELEEQTRRALELEQERKRAQSEAEKLAKERQEAEEAKEALLQASRDQKKTQEQLALEMAELTARISQLEMARQKKESEAVEWQQKAQMVQEDLEKTRAELKTAMSTPHVAEPAENEQDEQDENGAEASADLRADAMAKDRSEEERTTEAEKNERVQKHLKALTSELANARDESKKTANDMIHAENMRLGRDKYKTLRQIRQGNTKQRIDEFESM
B4: Glutamyl aminopeptidase (protein, UniProt Q07075 1-957, looked up)
Glutamyl aminopeptidase: MNFAEREGSKRYCIQTKHVAILCAVVVGVGLIVGLAVGLTRSCDSSGDGGPGTAPAPSHLPSSTASPSGPPAQDQDICPASEDESGQWKNFRLPDFVNPVHYDLHVKPLLEEDTYTGTVSISINLSAPTRYLWLHLRETRITRLPELKRPSGDQVQVRRCFEYKKQEYVVVEAEEELTPSSGDGLYLLTMEFAGWLNGSLVGFYRTTYTENGQVKSIVATDHEPTDARKSFPCFDEPNKKATYTISITHPKEYGALSNMPVAKEESVDDKWTRTTFEKSVPMSTYLVCFAVHQFDSVKRISNSGKPLTIYVQPEQKHTAEYAANITKSVFDYFEEYFAMNYSLPKLDKIAIPDFGTGAMENWGLITYRETNLLYDPKESASSNQQRVATVVAHELVHQWFGNIVTMDWWEDLWLNEGFASFFEFLGVNHAETDWQMRDQMLLEDVLPVQEDDSLMSSHPIIVTVTTPDEITSVFDGISYSKGSSILRMLEDWIKPENFQKGCQMYLEKYQFKNAKTSDFWAALEEASRLPVKEVMDTWTRQMGYPVLNVNGVKNITQKRFLLDPRANPSQPPSDLGYTWNIPVKWTEDNITSSVLFNRSEKEGITLNSSNPSGNAFLKINPDHIGFYRVNYEVATWDSIATALSLNHKTFSSADRASLIDDAFALARAQLLDYKVALNLTKYLKREENFLPWQRVISAVTYIISMFEDDKELYPMIEEYFQGQVKPIADSLGWNDAGDHVTKLLRSSVLGFACKMGDREALNNASSLFEQWLNGTVSLPVNLRLLVYRYGMQNSGNEISWNYTLEQYQKTSLAQEKEKLLYGLASVKNVTLLSRYLDLLKDTNLIKTQDVFTVIRYISYNSYGKNMAWNWIQLNWDYLVNRYTLNNRNLGRIVTIAEPFNTELQLWQMESFFAKYPQAGAGEKPREQVLETVKNNIEWLKQHRNTIREWFFNLLESG
B5: Aminopeptidase N (protein, UniProt P15144 2-967, looked up)
Aminopeptidase N: AKGFYISKSLGILGILLGVAAVCTIIALSVVYSQEKNKNANSSPVASTTPSASATTNPASATTLDQSKAWNRYRLPNTLKPDSYRVTLRPYLTPNDRGLYVFKGSSTVRFTCKEATDVIIIHSKKLNYTLSQGHRVVLRGVGGSQPPDIDKTELVEPTEYLVVHLKGSLVKDSQYEMDSEFEGELADDLAGFYRSEYMEGNVRKVVATTQMQAADARKSFPCFDEPAMKAEFNITLIHPKDLTALSNMLPKGPSTPLPEDPNWNVTEFHTTPKMSTYLLAFIVSEFDYVEKQASNGVLIRIWARPSAIAAGHGDYALNVTGPILNFFAGHYDTPYPLPKSDQIGLPDFNAGAMENWGLVTYRENSLLFDPLSSSSSNKERVVTVIAHELAHQWFGNLVTIEWWNDLWLNEGFASYVEYLGADYAEPTWNLKDLMVLNDVYRVMAVDALASSHPLSTPASEINTPAQISELFDAISYSKGASVLRMLSSFLSEDVFKQGLASYLHTFAYQNTIYLNLWDHLQEAVNNRSIQLPTTVRDIMNRWTLQMGFPVITVDTSTGTLSQEHFLLDPDSNVTRPSEFNYVWIVPITSIRDGRQQQDYWLIDVRAQNDLFSTSGNEWVLLNLNVTGYYRVNYDEENWRKIQTQLQRDHSAIPVINRAQIINDAFNLASAHKVPVTLALNNTLFLIEERQYMPWEAALSSLSYFKLMFDRSEVYGPMKNYLKKQVTPLFIHFRNNTNNWREIPENLMDQYSEVNAISTACSNGVPECEEMVSGLFKQWMENPNNNPIHPNLRSTVYCNAIAQGGEEEWDFAWEQFRNATLVNEADKLRAALACSKELWILNRYLSYTLNPDLIRKQDATSTIISITNNVIGQGLVWDFVQSNWKKLFNDYGGGSFSFSNLIQAVTRRFSTEYELQQLEQFKKDNEETGFGSGTRALEQALEKTKANIKWVKENKEVVLQWFTENSK
B6: Brain acid soluble protein 1 (protein, UniProt P80723 2-227, looked up)
Brain acid soluble protein 1: GGKLSKKKKGYNVNDEKAKEKDKKAEGAATEEEGTPKESEPQAAAEPAEAKEGKEKPDQDAEGKAEEKEGEKDAAAAKEEAPKAEPEKTEGAAEAKAEPPKAPEQEQAAPGPAAGGEAPKAAEAAAAPAESAAPAAGEEPSKEEGEPKKTEAPAAPAAQETKSDGAPASDSKPGSSEAAPSSKETPAATEAPSSTPKAQGPAASAEEPKPVEAPAANSDQTVTVKE

system: human endometrial epithelial cells (HEECs); assay: LC-MS/MS analysis of plasma membrane-enriched proteins of HEECs; settings: sample 1, proliferative phase

| Molecule | Total unique peptides, Samples 1 |
| --- | --- |
| B1 | 7 |
| B2 | 2 |
| B3 | 11 |
| B4 | 4 |
| B5 | 8 |
| B6 | 3 |

same assay, conditions: sample 2, proliferative phase

| Molecule | Total unique peptides, Samples 2 |
| --- | --- |
| B1 | 4 |
| B2 | 2 |
| B3 | 9 |
| B4 | 1 |
| B5 | 3 |
| B6 | 3 |

same assay, conditions: sample 3, proliferative phase

| Molecule | Total unique peptides, Samples 3 |
| --- | --- |
| B1 | 2 |
| B2 | 1 |
| B3 | 4 |
| B4 | 1 |
| B5 | 2 |
| B6 | 6 |
